In the supplement of paper PMC10849652:
This is one part of the list.

Chains of the proteins cited; added tags and fusions are not shown. Lines headed by an entry give the natural chain unless they say otherwise; changes in a name come on top.
UniProt P23284: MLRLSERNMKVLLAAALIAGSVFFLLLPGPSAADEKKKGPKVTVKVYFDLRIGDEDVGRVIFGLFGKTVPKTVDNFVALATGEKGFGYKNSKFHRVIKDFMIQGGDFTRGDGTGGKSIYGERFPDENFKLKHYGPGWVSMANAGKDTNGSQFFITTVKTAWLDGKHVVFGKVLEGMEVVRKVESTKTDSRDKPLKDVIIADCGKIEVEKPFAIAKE
UniProt Q14651: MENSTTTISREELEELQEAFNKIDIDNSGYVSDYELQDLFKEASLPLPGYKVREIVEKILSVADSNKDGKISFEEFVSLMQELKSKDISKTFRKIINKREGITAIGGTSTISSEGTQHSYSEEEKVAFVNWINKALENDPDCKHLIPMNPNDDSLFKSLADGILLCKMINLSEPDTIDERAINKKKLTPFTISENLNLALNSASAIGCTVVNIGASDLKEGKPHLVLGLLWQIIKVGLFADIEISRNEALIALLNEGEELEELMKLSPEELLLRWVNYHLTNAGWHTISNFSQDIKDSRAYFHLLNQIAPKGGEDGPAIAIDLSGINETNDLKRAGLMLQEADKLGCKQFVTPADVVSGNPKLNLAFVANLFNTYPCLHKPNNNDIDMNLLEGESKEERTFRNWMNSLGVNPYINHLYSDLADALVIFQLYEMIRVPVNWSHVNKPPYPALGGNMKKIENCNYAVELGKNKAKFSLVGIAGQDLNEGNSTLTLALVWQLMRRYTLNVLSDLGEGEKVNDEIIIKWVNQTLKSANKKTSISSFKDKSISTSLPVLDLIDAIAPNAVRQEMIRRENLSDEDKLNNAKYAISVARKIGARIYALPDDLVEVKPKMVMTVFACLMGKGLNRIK
UniProt O60568: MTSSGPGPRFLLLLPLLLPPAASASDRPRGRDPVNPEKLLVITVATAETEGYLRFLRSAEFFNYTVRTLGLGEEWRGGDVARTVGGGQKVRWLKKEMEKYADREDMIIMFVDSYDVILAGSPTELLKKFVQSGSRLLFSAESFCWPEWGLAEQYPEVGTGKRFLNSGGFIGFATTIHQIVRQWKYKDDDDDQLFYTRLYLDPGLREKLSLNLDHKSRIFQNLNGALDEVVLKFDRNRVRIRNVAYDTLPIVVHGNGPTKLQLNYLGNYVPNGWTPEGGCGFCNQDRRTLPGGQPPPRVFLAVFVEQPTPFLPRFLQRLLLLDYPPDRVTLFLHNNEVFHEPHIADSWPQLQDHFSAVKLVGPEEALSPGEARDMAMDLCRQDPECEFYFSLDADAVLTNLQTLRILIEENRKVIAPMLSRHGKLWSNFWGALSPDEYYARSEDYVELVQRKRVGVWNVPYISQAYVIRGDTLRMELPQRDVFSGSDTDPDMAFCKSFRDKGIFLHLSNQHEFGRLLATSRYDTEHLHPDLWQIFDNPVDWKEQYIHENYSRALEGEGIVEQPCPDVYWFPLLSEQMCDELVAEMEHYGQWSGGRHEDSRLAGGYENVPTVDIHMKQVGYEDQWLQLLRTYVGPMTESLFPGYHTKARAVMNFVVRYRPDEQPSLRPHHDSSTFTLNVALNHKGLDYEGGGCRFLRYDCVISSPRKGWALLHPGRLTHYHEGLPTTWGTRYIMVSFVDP
UniProt Q9NZ53: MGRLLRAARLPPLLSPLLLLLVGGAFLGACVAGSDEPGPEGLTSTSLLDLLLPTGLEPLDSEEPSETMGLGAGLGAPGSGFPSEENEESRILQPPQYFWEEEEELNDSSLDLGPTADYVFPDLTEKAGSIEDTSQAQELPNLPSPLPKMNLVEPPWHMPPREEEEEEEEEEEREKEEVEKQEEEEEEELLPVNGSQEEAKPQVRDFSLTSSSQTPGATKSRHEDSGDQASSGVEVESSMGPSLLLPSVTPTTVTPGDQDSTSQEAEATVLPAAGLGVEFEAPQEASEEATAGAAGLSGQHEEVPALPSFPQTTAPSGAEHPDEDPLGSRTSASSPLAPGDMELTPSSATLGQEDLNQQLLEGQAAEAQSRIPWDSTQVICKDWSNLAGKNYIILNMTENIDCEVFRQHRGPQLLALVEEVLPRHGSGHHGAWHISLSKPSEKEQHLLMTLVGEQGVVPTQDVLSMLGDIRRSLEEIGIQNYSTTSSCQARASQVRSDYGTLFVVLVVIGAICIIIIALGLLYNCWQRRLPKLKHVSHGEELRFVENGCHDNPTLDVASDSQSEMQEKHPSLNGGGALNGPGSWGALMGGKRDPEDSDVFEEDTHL
UniProt Q6UW63: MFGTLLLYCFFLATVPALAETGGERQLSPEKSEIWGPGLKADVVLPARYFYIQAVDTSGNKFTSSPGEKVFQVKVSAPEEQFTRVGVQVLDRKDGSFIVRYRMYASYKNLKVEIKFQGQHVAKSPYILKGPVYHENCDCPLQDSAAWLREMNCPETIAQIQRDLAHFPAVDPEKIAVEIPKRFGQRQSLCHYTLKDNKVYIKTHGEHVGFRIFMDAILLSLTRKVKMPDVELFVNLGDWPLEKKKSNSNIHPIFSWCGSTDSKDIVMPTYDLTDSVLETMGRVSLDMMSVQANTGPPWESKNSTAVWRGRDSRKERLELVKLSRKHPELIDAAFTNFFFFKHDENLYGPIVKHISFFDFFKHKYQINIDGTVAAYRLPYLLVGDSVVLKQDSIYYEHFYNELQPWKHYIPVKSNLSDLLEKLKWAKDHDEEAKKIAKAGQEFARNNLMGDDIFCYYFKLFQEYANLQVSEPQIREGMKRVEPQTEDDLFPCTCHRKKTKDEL
UniProt O95707: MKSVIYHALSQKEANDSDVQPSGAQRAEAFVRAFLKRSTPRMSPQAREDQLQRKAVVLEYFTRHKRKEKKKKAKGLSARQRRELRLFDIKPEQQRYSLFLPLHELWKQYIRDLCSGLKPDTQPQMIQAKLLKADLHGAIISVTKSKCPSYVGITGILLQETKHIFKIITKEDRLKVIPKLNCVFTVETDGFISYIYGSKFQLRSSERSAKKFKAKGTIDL
UniProt O14802: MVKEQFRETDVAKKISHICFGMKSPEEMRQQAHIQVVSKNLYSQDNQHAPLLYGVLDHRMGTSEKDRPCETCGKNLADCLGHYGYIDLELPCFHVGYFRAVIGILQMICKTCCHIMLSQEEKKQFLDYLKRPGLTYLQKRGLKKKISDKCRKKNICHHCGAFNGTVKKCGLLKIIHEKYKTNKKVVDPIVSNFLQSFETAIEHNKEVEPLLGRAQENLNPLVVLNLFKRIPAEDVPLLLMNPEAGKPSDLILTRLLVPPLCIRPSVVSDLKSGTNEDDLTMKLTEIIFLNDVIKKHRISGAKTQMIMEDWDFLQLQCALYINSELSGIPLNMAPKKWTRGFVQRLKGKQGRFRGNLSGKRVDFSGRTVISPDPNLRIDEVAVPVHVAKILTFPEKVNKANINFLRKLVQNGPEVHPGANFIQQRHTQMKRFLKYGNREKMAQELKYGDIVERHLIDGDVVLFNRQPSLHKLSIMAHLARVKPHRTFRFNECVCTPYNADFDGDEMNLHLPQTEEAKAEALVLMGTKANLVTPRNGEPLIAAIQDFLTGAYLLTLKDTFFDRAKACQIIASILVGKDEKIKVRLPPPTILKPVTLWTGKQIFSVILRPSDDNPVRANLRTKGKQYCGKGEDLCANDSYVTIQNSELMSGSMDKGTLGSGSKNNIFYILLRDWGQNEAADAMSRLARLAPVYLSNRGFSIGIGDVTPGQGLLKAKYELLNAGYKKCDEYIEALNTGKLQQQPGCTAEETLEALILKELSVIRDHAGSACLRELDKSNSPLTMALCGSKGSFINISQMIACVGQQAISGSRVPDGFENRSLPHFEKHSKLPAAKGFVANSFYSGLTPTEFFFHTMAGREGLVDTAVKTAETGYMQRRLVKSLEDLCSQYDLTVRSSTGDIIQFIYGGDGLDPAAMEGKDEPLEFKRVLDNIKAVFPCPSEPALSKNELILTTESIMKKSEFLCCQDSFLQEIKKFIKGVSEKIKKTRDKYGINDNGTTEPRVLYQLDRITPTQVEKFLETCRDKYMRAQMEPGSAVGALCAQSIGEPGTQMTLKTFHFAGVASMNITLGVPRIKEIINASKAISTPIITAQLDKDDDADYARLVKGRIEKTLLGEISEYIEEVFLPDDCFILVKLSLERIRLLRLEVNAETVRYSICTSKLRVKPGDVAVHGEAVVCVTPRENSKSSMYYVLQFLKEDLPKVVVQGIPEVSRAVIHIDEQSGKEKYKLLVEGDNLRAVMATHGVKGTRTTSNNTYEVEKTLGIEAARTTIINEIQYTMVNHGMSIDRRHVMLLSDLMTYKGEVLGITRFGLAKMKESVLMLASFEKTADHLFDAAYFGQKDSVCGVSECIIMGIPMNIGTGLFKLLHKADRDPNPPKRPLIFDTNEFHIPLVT
UniProt P14859: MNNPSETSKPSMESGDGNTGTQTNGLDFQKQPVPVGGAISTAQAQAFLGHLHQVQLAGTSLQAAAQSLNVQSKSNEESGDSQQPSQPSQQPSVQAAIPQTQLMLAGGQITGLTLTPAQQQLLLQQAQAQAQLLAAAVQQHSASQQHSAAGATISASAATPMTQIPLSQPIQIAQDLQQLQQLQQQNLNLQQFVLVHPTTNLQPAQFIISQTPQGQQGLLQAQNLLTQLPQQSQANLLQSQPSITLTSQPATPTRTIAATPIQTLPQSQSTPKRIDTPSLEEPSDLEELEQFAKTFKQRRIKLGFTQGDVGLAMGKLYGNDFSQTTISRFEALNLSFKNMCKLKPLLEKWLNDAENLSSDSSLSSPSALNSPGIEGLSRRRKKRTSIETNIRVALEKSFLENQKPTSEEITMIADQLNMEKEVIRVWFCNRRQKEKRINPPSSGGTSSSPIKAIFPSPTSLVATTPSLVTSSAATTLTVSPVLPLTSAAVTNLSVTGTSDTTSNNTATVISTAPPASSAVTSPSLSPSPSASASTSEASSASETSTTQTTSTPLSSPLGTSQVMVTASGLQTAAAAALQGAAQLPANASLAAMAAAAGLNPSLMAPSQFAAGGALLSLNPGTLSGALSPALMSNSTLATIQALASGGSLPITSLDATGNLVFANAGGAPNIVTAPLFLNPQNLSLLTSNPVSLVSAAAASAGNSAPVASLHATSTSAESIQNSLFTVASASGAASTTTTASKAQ
UniProt Q15063: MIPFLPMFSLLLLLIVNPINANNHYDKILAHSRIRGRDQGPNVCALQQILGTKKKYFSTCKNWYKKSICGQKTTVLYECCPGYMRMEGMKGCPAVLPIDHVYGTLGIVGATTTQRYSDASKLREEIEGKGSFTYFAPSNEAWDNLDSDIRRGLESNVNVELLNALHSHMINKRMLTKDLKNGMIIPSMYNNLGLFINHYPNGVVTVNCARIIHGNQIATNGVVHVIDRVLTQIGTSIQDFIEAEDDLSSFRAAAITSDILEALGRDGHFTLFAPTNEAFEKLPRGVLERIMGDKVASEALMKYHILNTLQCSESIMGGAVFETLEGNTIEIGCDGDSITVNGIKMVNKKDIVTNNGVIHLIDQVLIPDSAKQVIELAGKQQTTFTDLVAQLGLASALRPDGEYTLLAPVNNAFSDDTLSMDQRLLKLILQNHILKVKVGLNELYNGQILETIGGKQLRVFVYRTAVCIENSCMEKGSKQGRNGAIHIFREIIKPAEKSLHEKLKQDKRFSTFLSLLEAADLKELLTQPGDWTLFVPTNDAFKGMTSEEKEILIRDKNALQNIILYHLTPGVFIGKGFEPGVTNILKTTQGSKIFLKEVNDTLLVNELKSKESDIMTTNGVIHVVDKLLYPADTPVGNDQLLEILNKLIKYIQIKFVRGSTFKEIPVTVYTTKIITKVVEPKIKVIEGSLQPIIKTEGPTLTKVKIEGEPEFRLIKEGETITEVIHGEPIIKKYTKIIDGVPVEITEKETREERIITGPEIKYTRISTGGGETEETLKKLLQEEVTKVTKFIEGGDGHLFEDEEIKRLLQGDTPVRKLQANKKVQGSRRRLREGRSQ
UniProt Q969H6: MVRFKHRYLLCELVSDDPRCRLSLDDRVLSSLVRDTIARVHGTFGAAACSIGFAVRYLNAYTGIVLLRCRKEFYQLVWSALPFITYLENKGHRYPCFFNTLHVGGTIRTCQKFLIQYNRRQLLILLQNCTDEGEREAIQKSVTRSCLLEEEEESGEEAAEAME
UniProt Q9Y2S7: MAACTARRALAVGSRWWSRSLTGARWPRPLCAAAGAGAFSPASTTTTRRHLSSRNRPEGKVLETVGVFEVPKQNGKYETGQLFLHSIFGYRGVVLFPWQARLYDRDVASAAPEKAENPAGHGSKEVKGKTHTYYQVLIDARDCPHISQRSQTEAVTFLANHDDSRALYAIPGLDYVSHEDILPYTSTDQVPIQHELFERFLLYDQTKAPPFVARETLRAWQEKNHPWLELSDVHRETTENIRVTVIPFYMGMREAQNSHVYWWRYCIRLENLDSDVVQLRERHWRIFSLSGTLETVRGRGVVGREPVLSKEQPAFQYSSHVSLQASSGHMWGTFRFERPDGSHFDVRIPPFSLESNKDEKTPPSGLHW
UniProt P62937, whole entry, looked up: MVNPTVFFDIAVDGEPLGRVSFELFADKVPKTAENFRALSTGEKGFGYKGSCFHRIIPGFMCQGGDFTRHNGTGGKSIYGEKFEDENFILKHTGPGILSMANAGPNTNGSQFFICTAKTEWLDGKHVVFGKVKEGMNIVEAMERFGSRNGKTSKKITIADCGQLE

What was measured:
Experiment in all cases: log2 fold change, soluble protein after heating vs DMSO (PISA); higher = thermal stabilisation; K562 cells, 10 uM, 30 min; active = over 0.2 and 3.5 SD of the protein, either way, in both replicates (recomputed)
[1] = compound: CC[C@@H]1C(=O)N(C)c2cnc(Nc3ccc(C(=O)NC4CCN(C)CC4)cc3OC)nc2N1C1CCCC1
Outline: (§1)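 Thermal stability values are relative to control samples and come from duplicates. They are expressed as log2 fold changes. For measurement, K562 cells (2×10^6 cells/mL) received 10 μM compound for 30 min, and aliquots were heated for 3 min over 48°C-58°C, pooled, and extracted at 4°C in PBS with 0.5% NP-40. Soluble protein, the supernatant after 21,000xg for 90 min, was quantified by TMTpro 16plex LC-MS/MS with equalised channel sums.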

[2] = compound: CC[C@@H]1C(=O)N(C)c2cnc(Nc3ccc(C(=O)N[C@H]4CC[C@H](N5CCN(CC6CC6)CC5)CC4)cc3OC)nc2N1C(C)C [volasertib]
Outline: as §1

[3] = compound: CC[C@H](C)N1C=C(C2=C(C=C(C=C21)C3=CN=C(C=C3)N4CCNCC4)C(=O)NCC5=C(C=C(NC5=O)C)C)C
Outline: as §1

[4] = compound: CC[C@H](C)[C@@H](C(=O)N[C@@H]([C@@H](C)O)C(=O)N[C@@H](CC(C)C)C(=O)[C@]1(CO1)C)NC(=O)[C@H]([C@@H](C)CC)N(C)C(=O)C [epoxomicin]
Outline: as §1

[5] = compound: CCn1c(C(=O)N(C2CC2)C2CC2)cc2c3c(ncn3C)c(Nc3cc(C)n(C)n3)nc21
Outline: as §1

[6] = compound: CCn1cc(-c2ccnc3[nH]c(-c4cccc(CN(C)C)c4)cc23)c(-c2ccc(NC(=O)N(C)C)cc2)n1
Outline: as §1

[7] = compound: CN(C)CC(=O)Nc1ccc2[nH]c(=O)c3ccccc3c2c1
Outline: as §1

[8] = compound: CN(CCOC1=CC=C(C=C1)C[C@H]2C(=O)NC(=O)S2)C3=CC=CC=N3 (racemic) [rosiglitazone]
Outline: as §1

[9] = compound: CN1C2=C(C3=C1C(=O)N(N=C3)CC4=CC(=CC=C4)N)SC(=C2)S(=O)C
Outline: as §1

[10] = compound: CN1CCC(CNc2ccc3ncc(-c4cccc(OC(F)(F)F)c4)n3n2)CC1
Outline: as §1

Measured: log2 fold change

PPIB (UniProt P23284)
inactive: [1] 0.027 | [2] -0.012 | [3] 0.011 | [4] -0.024 | [5] 0.006 | [6] 0.055 | [7] -0.044 | [8] -0.026 | [9] 0.041 | [10] 0.111

PPCS (UniProt Q9HAB8)
inactive: [1] 0.034 | [2] -0.019 | [3] -0.006 | [4] -0.033 | [5] 0.006 | [6] -0.057 | [7] 0 | [8] 0.056 | [9] -0.084 | [10] -0.053

PLPBP (UniProt O94903)
inactive: [1] 0 | [2] -0.108 | [3] 0.027 | [4] 0.033 | [5] -0.11 | [6] -0.063 | [7] 0.049 | [8] 0.015 | [9] -0.001 | [10] -0.127

POP7 (UniProt O75817)
inactive: [1] -0.012 | [2] 0.113 | [3] 0.247 | [4] -0.062 | [5] -0.056 | [6] -0.006 | [7] 0.002 | [8] 0.051 | [9] 0.011 | [10] -0.055

Pulled one by one from the list above (2):
POP7 (UniProt O75817)
inactive: [1] -0.012 | [2] 0.113 | [3] 0.247 | [4] -0.062 | [5] -0.056 | [6] -0.006 | [7] 0.002 | [8] 0.051 | [9] 0.011 | [10] -0.055

PPCS (UniProt Q9HAB8)
inactive: [1] 0.034 | [2] -0.019 | [3] -0.006 | [4] -0.033 | [5] 0.006 | [6] -0.057 | [7] 0 | [8] 0.056 | [9] -0.084 | [10] -0.053

The listing continues.

PPCDC (UniProt Q96CD2)
inactive: [1] 0.093 | [2] -0.123 | [3] -0.108 | [4] -0.033 | [5] -0.029 | [6] -0.063 | [7] 0 | [8] 0.047 | [9] -0.087 | [10] 0.028

PPIE (UniProt Q9UNP9)
inactive: [1] -0.028 | [2] -0.042 | [3] -0.039 | [4] 0.034 | [5] 0.007 | [6] 0.026 | [7] -0.046 | [8] -0.029 | [9] -0.013 | [10] -0.014

PLS1 (UniProt Q14651)
inactive: [1] -0.043 | [2] -0.13 | [3] 0.043 | [4] 0.004 | [5] -0.035 | [6] -0.046 | [7] 0.023 | [8] 0.007 | [9] -0.061 | [10] -0.09

PLEKHF2 (UniProt Q9H8W4)
inactive: [1] -0.108 | [2] -0.261 | [3] 0.053 | [4] 0.013 | [5] 0.007 | [6] -0.071 | [7] 0.223 | [8] 0.11 | [9] -0.012 | [10] -0.212

PLOD3 (UniProt O60568)
inactive: [1] 0.05 | [2] 0.088 | [3] -0.007 | [4] -0.022 | [5] 0.01 | [6] 0.027 | [7] -0.053 | [8] 0 | [9] 0.037 | [10] 0.138

POFUT2 (UniProt Q9Y2G5)
inactive: [1] 0.064 | [2] -0.022 | [3] -0.018 | [4] 0.021 | [5] -0.013 | [6] 0.047 | [7] -0.021 | [8] 0.038 | [9] 0.127 | [10] 0.071

POLE3 (UniProt Q9NRF9)
inactive: [1] 0.059 | [2] 0.148 | [3] 0.018 | [4] -0.001 | [5] 0.01 | [6] -0.017 | [7] 0.095 | [8] 0.004 | [9] -0.057 | [10] 0.061

PODXL2 (UniProt Q9NZ53)
inactive: [1] 0.032 | [2] -0.185 | [3] 0.008 | [4] -0.021 | [5] 0.031 | [6] 0.144 | [7] -0.04 | [8] -0.017 | [9] 0.042 | [10] -0.122

POGLUT2 (UniProt Q6UW63)
inactive: [1] -0.005 | [2] 0.003 | [3] 0.035 | [4] 0.009 | [5] -0.007 | [6] 0.045 | [7] -0.058 | [8] 0.005 | [9] 0.03 | [10] 0.034

POP4 (UniProt O95707)
inactive: [1] -0.082 | [2] 0.168 | [3] 0.027 | [4] -0.055 | [5] 0.017 | [6] -0.041 | [7] -0.031 | [8] 0.055 | [9] -0.024 | [10] 0.069

POLR3A (UniProt O14802)
inactive: [1] -0.069 | [2] -0.342 | [3] 0.318 | [4] 0.014 | [5] -0.012 | [6] -0.015 | [7] 0.045 | [8] 0.114 | [9] 0.054 | [10] -0.016

POLR1C (UniProt O15160)
inactive: [1] -0.027 | [2] -0.387 | [3] 0.088 | [4] -0.005 | [5] -0.074 | [6] 0.039 | [7] 0.053 | [8] 0.005 | [9] 0.158 | [10] -0.062

PNPO (UniProt Q9NVS9)
inactive: [1] -0.011 | [2] 0.022 | [3] 0.008 | [4] 0.052 | [5] -0.031 | [6] 0.029 | [7] -0.06 | [8] 0.013 | [9] -0.044 | [10] -0.058

POU2F1 isoform 6 (UniProt P14859)
inactive: [1] -0.037 | [2] -0.115 | [3] 0.077 | [4] 0.072 | [5] -0.037 | [6] -0.147 | [7] -0.018 | [8] 0.106 | [9] -0.024 | [10] -0.158

PPIP5K2 (UniProt O43314)
inactive: [1] 0.024 | [2] 0.032 | [3] -0.004 | [4] 0.047 | [5] -0.033 | [6] -0.058 | [7] 0.011 | [8] 0.029 | [9] -0.055 | [10] 0.01

POSTN (UniProt Q15063)
inactive: [1] -0.025 | [2] -0.024 | [3] -0.089 | [4] -0.241 | [5] -0.038 | [6] -0.012 | [7] -0.071 | [8] 0.174 | [9] 0.161 | [10] -0.142

POP5 (UniProt Q969H6)
inactive: [1] 0.092 | [2] 0.081 | [3] -0.081 | [4] 0 | [5] 0.039 | [6] -0.012 | [7] -0.048 | [8] -0.111 | [9] -0.089 | [10] 0.073

PPIL3 isoform 2 (UniProt Q9H2H8)
inactive: [1] 0.063 | [2] -0.146 | [3] 0.139 | [4] -0.007 | [5] -0.042 | [6] 0.027 | [7] 0.024 | [8] 0.07 | [9] 0.031 | [10] -0.112

PPFIA1 (UniProt Q13136)
inactive: [1] 0.066 | [2] -0.279 | [3] -0.278 | [4] -0.034 | [5] -0.079 | [6] -0.003 | [7] -0.03 | [8] 0.07 | [9] 0.069 | [10] 0.013

POLR3C (UniProt Q9BUI4)
inactive: [1] 0.04 | [2] -0.046 | [3] -0.02 | [4] 0.02 | [5] 0.002 | [6] -0.04 | [7] -0.031 | [8] 0.007 | [9] -0.081 | [10] 0.009

PLIN3 (UniProt O60664)
inactive: [1] -0.034 | [2] 0.031 | [3] -0.008 | [4] 0.046 | [5] -0.002 | [6] -0.013 | [7] -0.003 | [8] 0.018 | [9] -0.025 | [10] -0.062

POLDIP2 (UniProt Q9Y2S7)
inactive: [1] -0.012 | [2] -0.058 | [3] 0.049 | [4] 0.018 | [5] -0.027 | [6] -0.033 | [7] 0.005 | [8] 0.028 | [9] -0.056 | [10] 0.015

PPIA (UniProt P62937)
inactive: [1] -0.049 | [2] 0.016 | [3] 0.041 | [4] 0.063 | [5] 0.006 | [6] 0 | [7] -0.006 | [8] 0.027 | [9] -0.055 | [10] -0.001

PPM1B (UniProt O75688)
inactive: [1] 0.025 | [2] 0.042 | [3] 0.035 | [4] 0.062 | [5] -0.038 | [6] -0.09 | [7] 0.012 | [8] 0.04 | [9] -0.064 | [10] -0.013

PPAT (UniProt Q06203)
inactive: [1] 0.028 | [2] 0.058 | [3] -0.02 | [4] -0.012 | [5] 0.006 | [6] -0.01 | [7] -0.016 | [8] 0.019 | [9] -0.062 | [10] 0.018

POLR3F (UniProt Q9H1D9)
inactive: [1] 0.049 | [2] 0.003 | [3] 0.029 | [4] 0.066 | [5] 0.001 | [6] -0.024 | [7] 0.043 | [8] 0.029 | [9] -0.048 | [10] 0.026
